Measurements: paper PMC11677858
These are yes or no findings as the source states them, for the method shown. Binding calls can cover weak binding; strength is not graded here. Where a sequence is shown, tags or fusion partners need not be part of it. For some assays here: In cells and extracts the contact can be indirect.

What was measured:
[1] = target: leucine-rich receptor like kinase LRK2, bait fusion LRK2-PBT3-SUC (rice (Oryza sativa)); test: two-hybrid; LRK2 as bait in PBT3-SUC, OsARF24 as prey in pPR3-N, yeast strain NMY51; growth on SD/-Leu-Trp and SD-Trp-His-Leu-Ade medium, 28 °C, 3 days
[2] = target: LRK2:cGFP (rice (Oryza sativa)); test: split reporter; BiFC with LRK2:cGFP and OsARF24:nGFP, Agrobacterium mixed with p19 and injected into leaves of 3-week-old tobacco plants; confocal microscope

binding [1]	binding [2]	Binder
binds	–	auxin response factor 24 (OsARF24), prey fusion OsARF24-pPR3-N (protein, UniProt Q2QQX6 1-841) MAAAATAAASPVEGLTGGGGGGGGGVDGLFVELWRACAGPLVTVPAVGERVFYLPQGHIEQVEASTNQVAEQQGAPLYNLPWKIPCKVMNVELKAEPDTDEVYAQLTLLPEKQQDGNGSGNGNVSKDKVEEEEVVPPAATERPRVHSFCKTLTASDTSTHGGFSVLRRHADECLPPLDMSQHPPTQELVAKDLHGVEWRFRHIFRGQPRRHLLQSGWSVFVSAKRLVAGDAFIFLRGENGELRVGVRRAMRQQANIPSSVISSHSMHLGVLATAWHAVNTGTMFTVYYKPRTSPSEFVVPRDLYKESLKRNHSIGMRFKMTFEGEEAAEQRFTGTIVGVGDSDPSGWADSKWRSLKVRWDEAASVPRPDRVSPWQIEPANSPSPVNPLPAPRTKRARPNVLASSPDLSAVNKEVASKVMANSQQNGLPRAFHSQENMNLRSRFGDSNELNTSQKLTMWSSGSNQEKNNVSVQRELGSQSWMQMRRPDGSSEILSGFQPLKDTRNPLSSFPSQISGNRSNTWNTINVHYPDQNANHNMYPGTWSLMPPNTGFGVNQQNYLMTPDITLPQRSLNAKFGGNGAFTSLRAHGIDQRSSGWLGHIEPSSHIDDASSSLIKPQPLVIDHNVQKAKGSSCMLFGISLDSPAKPELLISPPSVAFDGKLQQDALEEDECSDPSKTVKPLDGAQHDSAREKHQSCPDGTKNIQSKQQNGSSRSCKKVHKQGIALGRSIDLTKFTCYDELIAELDQMFDFNGELNSSSKNWMVVYTDNEGDMMLVGDDPWNEFCNMVHKIFIYTREEVQKMNPGALNSRSEDSRSTSVERGLVGEGLQGGLSTPSLNSENC
–	binds	OsARF24:nGFP (protein, UniProt Q2QQX6 1-841) MAAAATAAASPVEGLTGGGGGGGGGVDGLFVELWRACAGPLVTVPAVGERVFYLPQGHIEQVEASTNQVAEQQGAPLYNLPWKIPCKVMNVELKAEPDTDEVYAQLTLLPEKQQDGNGSGNGNVSKDKVEEEEVVPPAATERPRVHSFCKTLTASDTSTHGGFSVLRRHADECLPPLDMSQHPPTQELVAKDLHGVEWRFRHIFRGQPRRHLLQSGWSVFVSAKRLVAGDAFIFLRGENGELRVGVRRAMRQQANIPSSVISSHSMHLGVLATAWHAVNTGTMFTVYYKPRTSPSEFVVPRDLYKESLKRNHSIGMRFKMTFEGEEAAEQRFTGTIVGVGDSDPSGWADSKWRSLKVRWDEAASVPRPDRVSPWQIEPANSPSPVNPLPAPRTKRARPNVLASSPDLSAVNKEVASKVMANSQQNGLPRAFHSQENMNLRSRFGDSNELNTSQKLTMWSSGSNQEKNNVSVQRELGSQSWMQMRRPDGSSEILSGFQPLKDTRNPLSSFPSQISGNRSNTWNTINVHYPDQNANHNMYPGTWSLMPPNTGFGVNQQNYLMTPDITLPQRSLNAKFGGNGAFTSLRAHGIDQRSSGWLGHIEPSSHIDDASSSLIKPQPLVIDHNVQKAKGSSCMLFGISLDSPAKPELLISPPSVAFDGKLQQDALEEDECSDPSKTVKPLDGAQHDSAREKHQSCPDGTKNIQSKQQNGSSRSCKKVHKQGIALGRSIDLTKFTCYDELIAELDQMFDFNGELNSSSKNWMVVYTDNEGDMMLVGDDPWNEFCNMVHKIFIYTREEVQKMNPGALNSRSEDSRSTSVERGLVGEGLQGGLSTPSLNSENC
